Data: publication PMC10003956, “To the Understanding of Catalysis by D-Amino Acid Transaminases: A Case Study of the Enzyme from Aminobacterium colombiense” (Molecules, 2023)

The chains behind the UniProt entries cited, without tags or fusion partners.
UniProt D5EHC5, entry or part of it: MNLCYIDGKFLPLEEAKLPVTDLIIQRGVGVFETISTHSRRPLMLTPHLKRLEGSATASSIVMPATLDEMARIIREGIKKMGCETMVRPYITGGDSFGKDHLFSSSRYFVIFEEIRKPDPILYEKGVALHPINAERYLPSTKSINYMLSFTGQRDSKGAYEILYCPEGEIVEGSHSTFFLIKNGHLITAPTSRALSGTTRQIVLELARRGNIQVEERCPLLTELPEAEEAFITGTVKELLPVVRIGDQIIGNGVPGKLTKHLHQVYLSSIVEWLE

Target: T1, AmicoTA (Aminobacterium colombiense, UniProt D5EHC5)
T1 construct: gene Amico_1844; N-terminal His6-TEV tag kept for kinetics, cut for crystals; E. coli Rosetta (DE3) pLysS
Experiment: half-reaction of PLP form, absorbance at […] nm
Format: binding

Question: NCCC[C@@H](N)C(=O)O [D-ornithine] was tested. Which Kd did it give?
Answer: 10 ± 1 mM
